Measurements as given in PubChem BioAssay AID504834 (National Center for Advancing Translational Sciences (NCATS), 2011).
Out of some 320,000 compounds screened, about 22,000 (6.9%) were called active. Inconclusive results, whose numbers are uncertain, are shown with a selection of clear calls. The call rests on the fitted dose curve; in most records, active means well fitted inhibition curve with a large enough effect; inconclusive means small, poorly fitted or top-dose-only effect, or another doubt; inactive means no such curve, though single readings can be large or run the other way. A potency beside an inconclusive call is a rough fit, not a confirmed value.

Experiment: Primary qHTS for delayed death inhibitors of the malarial parasite plastid, 96 hour incubation
Settings: P. falciparum luciferase reporter growth; series mostly up to 28.7 µM; activity change, negative = inhibition: at the top concentration
Outline: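 Cell-based qHTS: luciferase-tagged P. falciparum in erythrocytes (2% hematocrit, 0.05% parasitemia final) incubated with compounds for 96 hours, 37 C, 5% CO2; luciferase detection reagent then added and luminescence measured.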
On the % scale 0 is the no-effect control and ±100 the full control effect; potency means the concentration at half of the fitted maximal effect.

| SMILES | Potency | activity change, negative = inhibition |
| --- | --- | --- |
| COc1ccc(NS(=O)(=O)c2cc(NC(=O)CNC(=O)c3cccc(OC)c3)ccc2C)cc1 | inconclusive: 18.5 µM [inhibitor, single point] | – |
| O=C(Nc1cc(Cl)ccc1Cl)Nn1cnnc1 | inconclusive: 0.0033 µM [inhibitor, full curve, poor fit] | – |
| CS(=O)(=O)N1CCCC(C(=O)NCc2ccccn2)C1 (configuration not stated) | inconclusive: 0.828 µM [inhibitor, full curve, poor fit] | – |
| Cc1ccnc(NC(=O)CCC(=O)N(CC(=O)NC(C)(C)C)c2ccc3c(c2)OCO3)c1 | inconclusive: 1.47 µM [inhibitor, full curve] | – |
| Cc1[nH]n(C(N)=S)c(=O)c1N=Nc1cccc(C(F)(F)F)c1 | inconclusive: 10.4 µM [inhibitor, partial curve, poor fit] | – |
| Cn1c(SCC(N)=O)nnc1-c1ccc(S(=O)(=O)N2CCCC2)cc1 | inconclusive: 2.33 µM [inhibitor, partial curve, poor fit] | – |
| CC(=O)c1cccc(NC2c3ccccc3C(=O)N2Cc2ccc3c(c2)OCO3)c1 (configuration not stated) | inconclusive: 9.28 µM [inhibitor, partial curve, poor fit] | – |
| O=C(c1cn(-c2ccccc2)nc1-c1cccnc1)N1CCCCC1 | inconclusive: 18.5 µM [inhibitor, single point] | – |
| CS(=O)(=O)N(CC(=O)Nc1ccc(F)c(F)c1)c1cccc([N+](=O)[O-])c1 | inconclusive: 18.5 µM [inhibitor, single point] | – |
| Cc1nn(C(=O)c2nn(C)cc2[N+](=O)[O-])c(C)c1Br | – | inactive: -3.09% |
| O=C(NCc1ccco1)C1CCN(Cc2ccc(F)cc2)CC1 | inconclusive: 0.104 µM [inhibitor, full curve, poor fit] | – |
| CCCN(c1ccccc1F)S(=O)(=O)c1cc(-c2cc(C)no2)ccc1OC | active: 14.7 µM | – |
| O=c1ccc2cc(S(=O)(=O)N3CCN(c4ccccc4F)CC3)ccc2[nH]1 | inconclusive: 18.5 µM [inhibitor, single point] | – |
| COc1cc2ccc3c(CCN(C)C)cc(OC)c(OC)c3c2cc1OC | – | inactive: 0% |
| CC(=O)Nc1ccc(NC(=O)COC(=O)CCc2nc3ccccc3s2)cc1 | – | inactive: 27.3% |
| CNC(=O)C[C@@H](N)C(=O)N[C@@H](C(=O)N[C@@H]1C(=O)N2[C@@H]1SC(C)(C)[C@@H]2C(=O)O)c1ccc(O)cc1 | inconclusive: 2.69 µM [inhibitor, partial curve, poor fit] | – |
| CCC(OC(=O)CN1C(=O)C(=O)c2ccccc21)C(=O)Nc1ccccc1OC (configuration not stated) | inconclusive: 11.7 µM [inhibitor, partial curve] | – |
| Cc1ccc2c(c1)C1CC(C)(O2)N(c2cccc(C(=O)N3CCN(c4ccccn4)CC3)c2)C(=O)N1 (configuration not stated) | inconclusive: 9.28 µM [inhibitor, partial curve, poor fit] | – |
| CCC1(c2ccccc2)NC(=O)N(CC(=O)Nc2cc(S(=O)(=O)N3CCOCC3)ccc2OC(C)C)C1=O (configuration not stated) | inconclusive: 2.62 µM [inhibitor, full curve] | – |
| C=CCn1c(SCc2cccc3ccccc23)nnc1-c1cccnc1 | inconclusive: 11.7 µM [inhibitor, partial curve] | – |
| CC1=CC(c2ccccc2)n2nc(NC(=O)CCC(=O)O)nc2N1 (configuration not stated) | inconclusive: 4.15 µM [inhibitor, partial curve, poor fit] | – |
| COc1ccccc1-n1nnnc1SCc1ccccc1 | inconclusive: 10.4 µM [inhibitor, single point] | – |
| O=C(CCn1cnnn1)N1CCCC(Nc2ccc(F)cc2)C1 (configuration not stated) | – | inactive: -6.39% |

Look-ups from the entries so far.
In Potency, CCC(OC(=O)CN1C(=O)C(=O)c2ccccc21)C(=O)Nc1ccccc1OC (configuration not stated) has inconclusive: 11.7 µM [inhibitor, partial curve]
In Potency, CCC1(c2ccccc2)NC(=O)N(CC(=O)Nc2cc(S(=O)(=O)N3CCOCC3)ccc2OC(C)C)C1=O (configuration not stated) has inconclusive: 2.62 µM [inhibitor, full curve]
In Potency, O=C(Nc1cc(Cl)ccc1Cl)Nn1cnnc1 has inconclusive: 0.0033 µM [inhibitor, full curve, poor fit]
In Potency, O=c1ccc2cc(S(=O)(=O)N3CCN(c4ccccc4F)CC3)ccc2[nH]1 has inconclusive: 18.5 µM [inhibitor, single point]

(more compounds)

| SMILES | Potency | activity change, negative = inhibition |
| --- | --- | --- |
| O=S1(=O)CC(NCc2ccccc2)C(Nc2ccc(Cl)cc2)C1 (configuration not stated) | inconclusive: 10.4 µM [inhibitor, single point] | – |
| Cc1ccc2c(c1)N(CCC(=O)NCCCOC(C)C)C(=O)C(C)O2 (configuration not stated) | inconclusive: 0.165 µM [inhibitor, full curve, poor fit] | – |
| Cc1cc(NC(=O)/C=C/C(=O)N(c2ccccc2C)C(C(=O)NC2CCCC2)c2ccc(F)cc2)no1 (configuration not stated) | inconclusive: 4.65 µM [inhibitor, partial curve] | – |
| CCOC(=O)c1c(N)n(C2CC(C)(C)NC(C)(C)C2)c2nc3ccccc3nc12 | active: 9.28 µM | – |
| Cc1oc(-c2cccc(C(F)(F)F)c2)nc1CN1CCN(c2ccccn2)CC1 | inconclusive: 18.5 µM [inhibitor, single point] | – |
| Cc1c(C2(O)CCCCC2)[nH]c2ncccc12 | inconclusive: 16.5 µM [inhibitor, single point] | – |
| O=C(CN1C(=O)NC2(CCCCC2)C1=O)Nc1ccc(Cl)c(S(=O)(=O)N2CCOCC2)c1 | – | inactive: -35.9% |
| COC(=O)CN1C(=O)CN=C(c2ccccc2Cl)c2cc(Br)ccc21 | inconclusive: 10.4 µM [inhibitor, single point] | – |
| COc1cccc(CC2(CO)CCCN(Cc3cn[nH]c3C3CCCCC3)C2)c1 (configuration not stated) | inconclusive: 13.1 µM [inhibitor, single point] | – |
| COc1cc(/C=C/C(=O)Nc2cccc(S(=O)(=O)NC3=NCCCCC3)c2)ccc1OCC#N | inconclusive: 10.4 µM [inhibitor, single point] | – |
| COc1cc(/C=C2\C(=N)N3N=CSC3=NC2=O)ccc1OS(=O)(=O)c1ccccc1 | inconclusive: 18.5 µM [inhibitor, single point] | – |
| Cc1ccc(OCc2nc3ccccc3n2C)cc1 | – | inactive: 1.42% |
| COc1ccc(CNC(=O)c2ccccc2[N+](=O)[O-])cc1 | – | inactive: 161% |
| COCCn1c(SCc2ccccc2Cl)nc2c1c(=O)[nH]c(=O)n2C | – | inactive: 15% |
| Cc1cc(C)nc(NS(=O)(=O)c2ccc(NC(=O)Cn3c(=O)oc4ccccc43)cc2)n1 | active: 6.57 µM | – |
| C1=C(c2ccccc2)Nc2ccccc2N=C1c1ccccc1 | – | inactive: 1.83% |
| O=C(NCC1CCCO1)c1csc2c1CCCC2 (configuration not stated) | inconclusive: 10.4 µM [inhibitor, partial curve] | – |
| CCOC(=O)CCc1c(C)c2ccc(OCc3cc([N+](=O)[O-])ccc3OC)c(C)c2oc1=O | inconclusive: 18.5 µM [inhibitor, single point] | – |
| C[C@@H]1CCC2[C@](C)(CO)[C@@H](O)CC[C@]2(C)[C@@]12CC[C@@](CO)(CC(=O)O)O2 (some centres not stated) | – | inactive: 4.13% |
| CCOC(=O)c1c(NC(=O)COC(=O)c2ccccn2)sc2c1CCC2 | – | inactive: 55.6% |
| O=C(NC(=S)Nc1ccccc1N1CCN(C(=O)c2ccccc2)CC1)c1ccccc1F | – | inactive: 40.5% |
| COc1ccc(CC(=O)OCN2C(=O)c3ccccc3C2=O)cc1 | – | inactive: 13.9% |
| Cc1cc(C)cc(OCC(=O)O/N=C(\N)c2ccccn2)c1 | inconclusive: 14.7 µM [inhibitor, partial curve, poor fit] | – |

| SMILES | Potency | activity change, negative = inhibition |
| --- | --- | --- |
| O=C(COC(=O)Cc1ccccc1F)Nc1ccc2c(c1)OCCO2 | – | inactive: 0% |
| COc1ccccc1N(CC(O)Cn1c2ccccc2c2ccccc21)S(=O)(=O)c1ccccc1 (configuration not stated) | active: 10.4 µM | – |
| Cc1cccc(OCC(=O)N(C)CCc2ccccn2)c1 | – | inactive: 61.5% |
| CC(=O)N1CCN(S(=O)(=O)c2cccc(C(=O)Nc3ccccc3N3CCCCC3)c2)CC1 | inconclusive: 2.08 µM [inhibitor, partial curve, poor fit] | – |
| O=C(NCCCn1ccnc1)c1ccc(Br)c(S(=O)(=O)N2CCOCC2)c1 | inconclusive: 18.5 µM [inhibitor, single point] | – |
| CCN(CC)C(=O)c1cc([N+](=O)[O-])cc2c1-c1ccc([N+](=O)[O-])cc1C2=C(C#N)C#N | inconclusive: 14.7 µM [inhibitor, partial curve] | – |
| COc1cccc(C(=O)NC2CCNCC2)c1 | inconclusive: 10.4 µM [inhibitor, single point] | – |
| CCN(CC)S(=O)(=O)c1ccc(N/N=C/c2ccc(O)cc2O)nc1 | active: 3.7 µM | – |
| CCc1ccc(NSc2ccccc2[N+](=O)[O-])cc1 | inconclusive: 11.7 µM [inhibitor, single point] | – |
| CC(C)OCCCn1c(SC(C)C(=O)NC2CC2)nc2ccccc2c1=O (configuration not stated) | inconclusive: 13.1 µM [inhibitor, partial curve, poor fit] | – |
| Cc1ccc2[nH]c(=O)c(CN(C(=O)c3cccs3)c3ccccc3)cc2c1 | inconclusive: 18.5 µM [inhibitor, single point] | – |
| C/C(=N/NC(=O)CCCOc1ccc(Cl)cc1Cl)c1ccc(C)o1 | inconclusive: 1.47 µM [inhibitor, full curve] | – |
| COc1ccc(OCCSCc2nnc(NC(=O)Nc3ccc(Cl)cc3)s2)cc1 | – | inactive: 34.1% |
| COc1ccc(-c2cc(C(=O)Nc3nc4c(C)cccc4s3)c3ccccc3n2)cc1OC | inconclusive: 18.5 µM [inhibitor, single point] | – |
| COc1ccc(CC2SC(N)=NC2=O)cc1 (configuration not stated) | inconclusive: 18.5 µM [inhibitor, single point] | – |
| O=C(COc1ncnc2scc(-c3ccccc3)c12)NCCN1C(=O)CSC1=O | – | inactive: 6.16% |
| Cc1cc(C)c(NC(=O)CSc2nnc(-c3ccncc3)n2Cc2ccco2)c(Cl)c1 | inconclusive: 11.7 µM [inhibitor, partial curve] | – |
| Cc1cc(NC(=O)CCC(=O)N(CC(=O)NC2CCCC2)Cc2ccccc2Cl)no1 | inconclusive: 2.62 µM [inhibitor, single point] | – |
| COc1ccccc1C(=O)N1C(CC(=O)Nc2ccc(C)c(C)c2)C(=O)NC2CCCCC21 (configuration not stated) | inconclusive: 14.7 µM [inhibitor, single point] | – |
| Cc1ccc(-c2c(C(=O)NCc3ccc(F)cc3)oc(=O)c3ccccc23)cc1 | – | inactive: -13.4% |
| N#Cc1c(NC(=O)C(=O)NCCCN2CCOCC2)sc2c1CCCC2 | – | inactive: 8.06% |
